Results on 54 sequences are retold here after article PMC7819943, “Rice protein-binding microarrays: a tool to detect cis-acting elements near promoter regions in rice”.

By UniProt entry, the sequences of proteins in these tests, tags left out.
UniProt Q0JBA9, entry or part of it: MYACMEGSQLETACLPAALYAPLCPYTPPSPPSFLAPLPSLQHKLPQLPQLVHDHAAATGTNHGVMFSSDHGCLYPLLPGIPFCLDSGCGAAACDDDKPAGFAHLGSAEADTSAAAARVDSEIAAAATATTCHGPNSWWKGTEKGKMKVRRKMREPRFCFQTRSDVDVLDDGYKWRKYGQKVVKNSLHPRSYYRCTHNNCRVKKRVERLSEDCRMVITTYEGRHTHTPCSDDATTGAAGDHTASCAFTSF

The list shows a part of the results.

The target in the assay is OsWRKY34 (Oryza sativa, UniProt Q0JBA9 1-250). Description: protein-binding microarray (RPBM); PBS, 2% BSA, 51.3 ng/ul salmon testes DNA, 50 uM zinc acetate, 200 nM TF, 25 C, 1 h; high values mean tight binding. To be noted: protein: recombinant; tags: N-terminal polyhistidine and DsRed monomer fusion (pET32a); label: CyDye5-dUTP incorporated in the synthesized complementary strand; 3' TTTTT single-stranded linker to array surface; dsDNA, one strand shown. In outline: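 A custom Agilent array was converted to double-stranded form by primer extension with Cy5-dUTP and blocked with 2% BSA. Protein at 200 nM in PBS with 2% BSA, salmon testes DNA and 50 µM zinc acetate was applied for 1 h at 25 °C, followed by washing. The proteins were polyhistidine–DsRed N-terminal fusions of transcription factors, expressed in E. coli BL21-CodonPlus and Ni–NTA-purified. The binding signal is per-feature fluorescence intensity (arbitrary units) from an Axon 4000B scanner.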
With “ATGACAGTTTTTTCAGTAATTCTCTCTCTTTTTTTCAGCACGGAGTCACCTAGTGCAG”, the binding signal was 9940 fluorescence intensity (a.u.).

In the case of “TGATGCCACCCTGTATATCCTATGGATCCCAACTATGGCTCGGAGTCACCTAGTGCAG”, the binding signal is 8140 fluorescence intensity (a.u.).

Turning to “TTTTCGTTTCCAAAGTTTGTTGTTGTTCTTCGTGTTGATTCGGAGTCACCTAGTGCAG”, the binding signal is 8670 fluorescence intensity (a.u.).

Take “CTCCATCCCGCGGCGGCCGTGAGCACCAACACTCACGCATCGGAGTCACCTAGTGCAG”: the binding signal was 9230 fluorescence intensity (a.u.).

Regarding “ATTACCAGTAGTTTATAGTGTTTGCTTTTTCTCATATATTCGGAGTCACCTAGTGCAG”, the binding signal was 11100 fluorescence intensity (a.u.).

Turning to “TGAGTTTATTTTTTATATGGTTGGTTCGTGTGAGTTCCTACGGAGTCACCTAGTGCAG”, the binding signal was 8280 fluorescence intensity (a.u.).

Take “GTCTTATCATCTCTCTCCCCTTTCCATTTTTACCTCTATCCGGAGTCACCTAGTGCAG”: the binding signal is 8100 fluorescence intensity (a.u.).

On to “ACCTAGCTACTCTCGATCGATCGACCGCCCGCCCGCCATGCGGAGTCACCTAGTGCAG”, for which the binding signal was 10400 fluorescence intensity (a.u.).

For the sequence “ACGACACTCTGCTCCTTTCTCTCACACACACACTCTGCACCGGAGTCACCTAGTGCAG”, the binding signal is 9210 fluorescence intensity (a.u.).

In the case of “GACATTTTCTTCCCCTCGAAGATATCCATGTGTATGTCAACGGAGTCACCTAGTGCAG”, the binding signal was 8270 fluorescence intensity (a.u.).

For “CGGTTAATATTTTTGTTCTTTACAGACTCTTCATTCATTTCGGAGTCACCTAGTGCAG”, the binding signal is 8380 fluorescence intensity (a.u.).

With “TTATTCATCTAAGTCTATGTTCTTATTTTGTTTGACAGGTCGGAGTCACCTAGTGCAG”, the binding signal was 9300 fluorescence intensity (a.u.).

For “AAGATGTGCAGAACTCCCCGTGTTTTTTTCTTGGATTGTTCGGAGTCACCTAGTGCAG”, the binding signal is 8480 fluorescence intensity (a.u.).

As to “TGCTAATTTTATTGTTAATTTAACTCGTATCTTGTGGCAACGGAGTCACCTAGTGCAG”, the binding signal was 8250 fluorescence intensity (a.u.).

Take “TGTGTGGTCGGGTCGGCTCAGCTGGAGTGAGGTCGAGGAGCGGAGTCACCTAGTGCAG”: the binding signal is 8640 fluorescence intensity (a.u.).

In the case of “TGCGTGTTTTATGATTACCTATGTTTCTGTTGTGTTTTAACGGAGTCACCTAGTGCAG”, the binding signal is 15300 fluorescence intensity (a.u.).

Regarding “ATTTTGATGGCGTTTCTTTTTTTTTTTTGTGGCACAGTTCCGGAGTCACCTAGTGCAG”, the binding signal is 8360 fluorescence intensity (a.u.).

For the sequence “GGGACGACACATGCTATACATCTCTCCAAATTGTTATCCACGGAGTCACCTAGTGCAG”, the binding signal is 10300 fluorescence intensity (a.u.).

On to “TATTTCTTGCCACTAAAGTGCCCAATTGTTTGGTTGTGTACGGAGTCACCTAGTGCAG”, for which the binding signal is 8710 fluorescence intensity (a.u.).

In the case of “CCCACATTTTCCCGGCCGTCGTTCCCGCCGACGAGCTCTTCGGAGTCACCTAGTGCAG”, the binding signal was 9560 fluorescence intensity (a.u.).

For “ACACCTCATCAACATGTACACTCCTATGTAGGTCAGCAGCCGGAGTCACCTAGTGCAG”, the binding signal was 10800 fluorescence intensity (a.u.).

Turning to “AATATTCTTTCGCTATTTGCTGAAACATTGTTTTTATATACGGAGTCACCTAGTGCAG”, the binding signal was 8610 fluorescence intensity (a.u.).

With “ATCATCCAACCGACGGTCCAACTGTCCAACTGTCCAGCCCCGGAGTCACCTAGTGCAG”, the binding signal was 9340 fluorescence intensity (a.u.).

Take “ACCCTAACCCGCGATCCGCCTCCGCCGCCGCCACCACCACCGGAGTCACCTAGTGCAG”: the binding signal was 9140 fluorescence intensity (a.u.).

For the sequence “CCATTCTCCCTGTACTTGCATGCTTCAGTTCTTGATTTGCCGGAGTCACCTAGTGCAG”, the binding signal is 9220 fluorescence intensity (a.u.).

“CCTAGTCGTTTTAAATACCCAGCATATATATCATAGTATCCGGAGTCACCTAGTGCAG”: the binding signal was 9060 fluorescence intensity (a.u.).

Regarding “GATCGTTCGCGATCAATCCGCCGCCGCCGCTTTTCTCCTCCGGAGTCACCTAGTGCAG”, the binding signal was 8360 fluorescence intensity (a.u.).

As to “GTTCAATAGAGTTATCATTTACCAACTTGTGATTTATTATCGGAGTCACCTAGTGCAG”, the binding signal was 8750 fluorescence intensity (a.u.).

As for “CTTGTAGTAGGATGTGCATTCCTTTGTCTCGTCCTTTCTCCGGAGTCACCTAGTGCAG”, the binding signal was 8630 fluorescence intensity (a.u.).

As for “TCTCCCGAGCGGCGCCGTCCCTCCCTCCGCCCGCCGTCCCCGGAGTCACCTAGTGCAG”, the binding signal is 9980 fluorescence intensity (a.u.).

Take “GCATTACAGCCAAACCCCGTTATGTCCGTTTTCTCAAACTCGGAGTCACCTAGTGCAG”: the binding signal was 9160 fluorescence intensity (a.u.).

Take “TTTGCATTAGTTAGTCAGTCCATGCTATTTATAACAGAACCGGAGTCACCTAGTGCAG”: the binding signal was 8650 fluorescence intensity (a.u.).

As for “GCGGGGAGGGCTCAAGCGATCGAGGGCGCGTGGTGGGGAGCGGAGTCACCTAGTGCAG”, the binding signal was 8980 fluorescence intensity (a.u.).

Take “GTACTTGTCACTTGATCTGTTTCTGTCGCCTCATTTATCTCGGAGTCACCTAGTGCAG”: the binding signal is 12100 fluorescence intensity (a.u.).

Take “TTAGTAATCTTCATTTGTTTTGCATACTAGTTTTGCATATCGGAGTCACCTAGTGCAG”: the binding signal is 8100 fluorescence intensity (a.u.).

On to “ATATTTAGGTTCGTTGGTCTTGATTTATATACACTCTAAACGGAGTCACCTAGTGCAG”, for which the binding signal was 8040 fluorescence intensity (a.u.).

For “TGTGCTATGTTATTGGTTTCACTATTCACGTACTATGCTTCGGAGTCACCTAGTGCAG”, the binding signal was 10900 fluorescence intensity (a.u.).

With “TTTCTTCTTCTTTGTTGTTGTTGTTGTTGTGTGTTCTTCTCGGAGTCACCTAGTGCAG”, the binding signal is 12000 fluorescence intensity (a.u.).

Turning to “GGGCATTGAGTGGTGGGGACGTGTGGGAGGCAGGCGGAGACGGAGTCACCTAGTGCAG”, the binding signal is 9540 fluorescence intensity (a.u.).

“ACTATTTTATACCCACATTTCTCTCTCTCTCTTGATTGTACGGAGTCACCTAGTGCAG”: the binding signal was 9000 fluorescence intensity (a.u.).

With “GGAGGGGTTGGAAAAATTCGGTGTTCGTGGCCGCCTTCACCGGAGTCACCTAGTGCAG”, the binding signal is 13400 fluorescence intensity (a.u.).

With “ACATATTTAAAAAAGTCAACGACGTCAAATATTTAGGGGACGGAGTCACCTAGTGCAG”, the binding signal was 8680 fluorescence intensity (a.u.).

In the case of “ACCGGCCCGCAGCTCCGGTAGCTTTTCTCTTCCTTTTCGCCGGAGTCACCTAGTGCAG”, the binding signal was 10600 fluorescence intensity (a.u.).

As for “ATTCCTGTCAGAATTCTATATTTTTCCTATTTCTCCGTTTCGGAGTCACCTAGTGCAG”, the binding signal is 9320 fluorescence intensity (a.u.).

As to “CTCTGCTGCTTCCTCTTCTCCCTCTCCATCGCCGTCGCCGCGGAGTCACCTAGTGCAG”, the binding signal was 8410 fluorescence intensity (a.u.).

Take “CCAACCTCTCTGCACAAACATCCATCCATCCATCCATTTGCGGAGTCACCTAGTGCAG”: the binding signal is 8440 fluorescence intensity (a.u.).

With “ATCATTTCTGCAAGTGCATATTGTTCTGCTGCTCCTTTTGCGGAGTCACCTAGTGCAG”, the binding signal is 8950 fluorescence intensity (a.u.).

Consider “CTCTCTGAAATTTTCTCGGATTTTTTGGAGCTCAATTCCTCGGAGTCACCTAGTGCAG”, for which the binding signal is 9100 fluorescence intensity (a.u.).

Take “TTCATTTCTGTTCCATTTCCCATCCATCATATCGCCTCGTCGGAGTCACCTAGTGCAG”: the binding signal is 9280 fluorescence intensity (a.u.).

Turning to “ATATATATATATATATATATATATATATATATGCGCAGAGCGGAGTCACCTAGTGCAG”, the binding signal was 9140 fluorescence intensity (a.u.).

In the case of “GCCGTCTGCTGCATCTATCACAAACCTGACCCTAGTTACCCGGAGTCACCTAGTGCAG”, the binding signal is 9530 fluorescence intensity (a.u.).

Consider “TTTGCGCTCCGATTTCGCTCGCTCTCCGTGCCAACGCCGCCGGAGTCACCTAGTGCAG”, for which the binding signal is 8150 fluorescence intensity (a.u.).

For “ATTGACATATTTCTACCCGCATAGCTAGTTAAAATTTCCACGGAGTCACCTAGTGCAG”, the binding signal was 8200 fluorescence intensity (a.u.).

Regarding “GGCCTATTCCGATTCCGACTTCCACCCTTTCGTTTTGGTACGGAGTCACCTAGTGCAG”, the binding signal is 10200 fluorescence intensity (a.u.).
